Reference: PubChem BioAssay AID1259308 (NCATS, 2017)
This is one part, drawn at random, of about 59,000 reagents. In the full data, about 1,510 (2.6%) got an active call. 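Calls use total luciferase alone and ignore viability, so some active siRNAs may act by altering cell number.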 The numbers tell different reagents against one gene apart. Not all columns of the deposit are shown. Reagent sequences are not shown.

Aim: 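Genes whose loss raises luciferase production in HEK293 cells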 (primary screen)
Cells: human HEK293 embryonic kidney cells stably expressing firefly luciferase (HEK-CMV-Luc2-Hygro)
Reagents: single siRNA against human genes, 0.8 pmol siRNA per well
Timing: 72 h
Measurement: 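Reporter luminescence and viable-cell signal on separate replicate plates, given as percent of non-targeting control and median/MAD z-scores, plus per-cell luciferase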
Reading the numbers: total luciferase, z-score: higher = more reporter protein produced
Rule for the call: 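Active when the median/MAD z-score for overall luciferase is greater than 3; a gene was taken forward for validation with new siRNAs if at least two of its three siRNAs passed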
Calls: active = raised luciferase; inactive = no rise

RNFT2 #1 gave total luciferase, z-score -0.368; inactive.
With knock-down of RNFT2 #2 the results were total luciferase, z-score 0.607; inactive.
RNFT2 #3 scored total luciferase, z-score -0.884; inactive.
With knock-down of FHOD1 #1 the results were total luciferase, z-score -2.26; inactive.
FHOD1 #2 gave total luciferase, z-score -0.992; inactive.
After knock-down of FHOD1 #3, the screen gave total luciferase, z-score 2.6; inactive.

Quoted from above (2 entries):
RNFT2 #1 | total luciferase, z-score = -0.368; Outcome = inactive
RNFT2 #2 | total luciferase, z-score = 0.607; Outcome = inactive

The list goes on:
Knock-down of AKNAD1 #1 came out at: total luciferase, z-score 0.54; inactive.
After knock-down of AKNAD1 #2 the results were total luciferase, z-score -0.454; inactive.
Silencing of AKNAD1 #3 came out at: total luciferase, z-score -0.628; inactive.
Against CD79A #1, the values are total luciferase, z-score 2.6; inactive.
Depletion of CD79A #2 resulted in: total luciferase, z-score 0.477; inactive.
Against CD79A #3, the values are total luciferase, z-score 3.13; active.
